Assay results taken from article PMC8009681.
These are yes or no findings as the source states them, for the method shown. Some results given as binding are weak or reduced against the parent protein; the word gives no strength. Tags and fused reporters may be left off the sequences shown.

Tests used:
[1] = biological target: T1, phyA-BD (Arabidopsis thaliana) (UniProt P14712); experiment: two-hybrid; growth assay, AH109, CSM LTH- plates with 20 μM phycocyanobilin and 3-AT (5, 10 or 30 mM by panel), R light (660 nm; phyA Pfr), 26°C
T1 sequence: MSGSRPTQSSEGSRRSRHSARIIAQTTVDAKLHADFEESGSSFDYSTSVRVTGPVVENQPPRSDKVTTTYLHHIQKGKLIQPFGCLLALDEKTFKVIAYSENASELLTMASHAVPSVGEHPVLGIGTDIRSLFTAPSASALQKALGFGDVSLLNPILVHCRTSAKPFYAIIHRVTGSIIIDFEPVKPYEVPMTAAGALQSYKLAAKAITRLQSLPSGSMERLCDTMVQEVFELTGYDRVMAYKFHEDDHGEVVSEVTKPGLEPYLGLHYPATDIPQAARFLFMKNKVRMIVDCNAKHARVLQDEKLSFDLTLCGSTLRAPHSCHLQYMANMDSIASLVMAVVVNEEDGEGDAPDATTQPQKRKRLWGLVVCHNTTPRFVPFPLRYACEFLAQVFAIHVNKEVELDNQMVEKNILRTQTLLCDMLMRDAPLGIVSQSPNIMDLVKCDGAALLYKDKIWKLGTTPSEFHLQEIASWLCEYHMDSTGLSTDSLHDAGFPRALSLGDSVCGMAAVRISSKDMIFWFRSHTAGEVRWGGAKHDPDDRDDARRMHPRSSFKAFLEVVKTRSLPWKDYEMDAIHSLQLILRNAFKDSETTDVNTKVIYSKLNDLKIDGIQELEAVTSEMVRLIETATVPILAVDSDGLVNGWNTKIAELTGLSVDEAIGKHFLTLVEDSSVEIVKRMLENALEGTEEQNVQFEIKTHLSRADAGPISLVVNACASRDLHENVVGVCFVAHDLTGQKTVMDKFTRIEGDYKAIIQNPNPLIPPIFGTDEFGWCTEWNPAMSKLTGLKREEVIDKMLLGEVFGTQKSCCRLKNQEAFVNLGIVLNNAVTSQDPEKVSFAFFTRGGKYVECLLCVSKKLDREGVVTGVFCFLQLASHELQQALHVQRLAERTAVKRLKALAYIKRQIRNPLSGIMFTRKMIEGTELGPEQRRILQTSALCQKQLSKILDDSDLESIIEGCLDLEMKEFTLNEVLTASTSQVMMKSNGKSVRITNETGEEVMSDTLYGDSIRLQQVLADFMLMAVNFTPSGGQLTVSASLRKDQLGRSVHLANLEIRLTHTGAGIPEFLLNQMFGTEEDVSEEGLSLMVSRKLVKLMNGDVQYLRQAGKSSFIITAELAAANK

[2] = biological target: T1, phyA-BD (Arabidopsis thaliana); experiment: two-hybrid; growth assay, AH109, CSM LTH- plates with 20 μM phycocyanobilin and 5 mM 3-AT, FR light (740 nm; phyA Pr), 26°C
[3] = biological target: T1, phyA-BD (Arabidopsis thaliana); experiment: yeast three-hybrid competition assay; AH109 with a two-hybrid pair and a NOT1 fragment as potential competitor; R light, CSM LTH- plates with 20 μM phycocyanobilin and increasing amounts of 3-AT

B1: AD-FHY1 (protein, UniProt Q8S4Q6 1-202)
chain: MPEVEVDNNNEKPSEINSFHHMIISSSKNVLKMEEVEVSKKRKFQTDQSDELSLLPLSKHTCFANVACSENTNGNSEIDTEYSMSSYVNSTTSMECNNDIEMKEESSGSCGEDKMISFESHLDYIYGTQNLEDFSEKVIENILYLDEQEEEEEDAKGCSSNAAKFVLSSGRWTVNQDDSTLHETKKPTIDQEFEQYFSTLML
Question: For B1, which binding [1] is on record?
Answer: Its binding is “binds”.

Question: And the binding [2]?
Answer: Its binding is “no binding (condition: FR light (phyA in the Pr state))”.

Question: What about the binding [3] of the same binder?
Answer: Its binding is “binds”.
